Test results published in the supplement of paper PMC5949888.
Most values lie at the floor of the assay. Slopes are relative: functional sequences can read slightly below zero.

What follows are substances tested on Saccharomyces cerevisiae PS128 hsf1 delta, HSF1(1-493) fusion (assay: growth estimate (transactivation domain function in HSF1 fusion, heat-shock survival) (a.u. (slope of normalised read count over time)); higher = stronger growth at 37°C, i.e. more transactivation activity). Settings: library: random library.
Procedure: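 Random 60-nt DNA library encoding peptides of up to 20 aa, fused to the C-terminus of yeast HSF1 residues 1-493 (C-terminal TAD deleted) and expressed from the native HSF1 promoter on a CEN plasmid in hsf1-deleted S. cerevisiae PS128. Cells were selected at 37°C on -trp 5-FOA plates for 0, 2, 4, 6 and 8 days and amplicons were sequenced. Growth estimate is the slope of a robust linear fit of total-sum-normalised read counts (normalised to the first time point) over time, using at least 2 replicates. Sequences are classed functional (TAD activity) above a threshold of -0.13, set from stop-codon control sequences.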
HPYDWKRVPERQ was tested, and the growth estimate was < -0.25.
In the case of HQAKLSARAMRLQFATTSLL, the growth estimate is reported as < -0.25.
With HQDKYRPVIGQRLDDELSKR the growth estimate was < -0.25.
With HQG the growth estimate was < -0.25.
In the case of HQKIIQDKG, the growth estimate is reported as < -0.25.
In the case of HQLLIGRRRGWSSYSNVSTS, the growth estimate is reported as < -0.25.
In the case of HQLSGSGVA, the growth estimate is reported as < -0.25.
For HQMPCSSDLGVERFWSAVGE, the growth estimate was < -0.25.
HQPEHLTYVIRQSAGLGFIV was tested, and the growth estimate was < -0.25.
With HQRSYSEVNRFSPFL the growth estimate was < -0.25.
With HQS the growth estimate was < -0.25.
With HQSLSSATCQHSRHGHRDAH the growth estimate was < -0.25.
In the case of HQTSGR, the growth estimate is reported as < -0.25.
With HQWYYAISERIS the growth estimate was < -0.25.
In the case of HRAKLQGGRHLRPECFTDLG, the growth estimate is reported as < -0.25.
For HRCISLRGFGGLSGDWTFGL, the growth estimate was < -0.25.
For HRDFSSTQ, the growth estimate was < -0.25.
HREFRSAG was tested, and the growth estimate was < -0.25.
In the case of HREHHSWRQVSASPHVPNLL, the growth estimate is reported as < -0.25.
In the case of HREVELDCLNLSPRGMGLAE, the growth estimate is reported as < -0.25.
HRFKA was tested, and the growth estimate was < -0.25.
With HRFSQLAVMVVRNTGYGQLR the growth estimate was < -0.25.
With HRGCQL the growth estimate was < -0.25.
For HRGGHSNWKFL, the growth estimate was < -0.25.
For HRGRKAPNEATIQCRRRVQT, the growth estimate was < -0.25.
HRGSQVPICGVWAHTTQHYD was tested, and the growth estimate was < -0.25.
In the case of HRHIALDRVIRAIPPTPLLL, the growth estimate is reported as < -0.25.
With HRIAFPRTTHLYSSHRPMSP the growth estimate was -0.243.
With HRICTDPQLGVHHG the growth estimate was < -0.25.
HRIQRYVSTPQDFLQVGDMT was tested, and the growth estimate was < -0.25.
HRIRGGALLLNARKVH was tested, and the growth estimate was < -0.25.
With HRIVQVELKVAYIPTIL the growth estimate was < -0.25.
In the case of HRKRLDYVSVLFARHWVERH, the growth estimate is reported as < -0.25.
HRKRSSNVSPGPLWRKPASN was tested, and the growth estimate was -0.0091.
HRNACRGGNYSDCGRPGRLM was tested, and the growth estimate was < -0.25.
For HRNCIAESGILGH, the growth estimate was < -0.25.
With HRPEESGHSDPCLKFVPYVQ the growth estimate was < -0.25.
HRQLLSARRNFESAHPGTSS was tested, and the growth estimate was < -0.25.
HRQM was tested, and the growth estimate was < -0.25.
HRQNTRFYTCNDLCYYRVRG was tested, and the growth estimate was < -0.25.
HRQR was tested, and the growth estimate was < -0.25.
In the case of HRQSLKERFR, the growth estimate is reported as < -0.25.
In the case of HRRS, the growth estimate is reported as -0.243.
HRRSQ was tested, and the growth estimate was < -0.25.
For HRRTFAGKCKLCRAGKE, the growth estimate was < -0.25.
HRSLN was tested, and the growth estimate was < -0.25.
In the case of HRSPSPFARLSFQYPSRAGS, the growth estimate is reported as < -0.25.
For HRSREGPH, the growth estimate was < -0.25.
For HRSRGQQASEYWSRASWRT, the growth estimate was < -0.25.
For HRSRLQTQGRVGLVIVCRVC, the growth estimate was < -0.25.
HRSTAH was tested, and the growth estimate was < -0.25.
HRTSVRCSLRFDRTESGCSA was tested, and the growth estimate was < -0.25.
With HRTTHPKKLRRPARSRTSPT the growth estimate was < -0.25.
In the case of HRVHPTTTIMGYHGLGNCTR, the growth estimate is reported as < -0.25.
With HRVTKSRGYLSRV the growth estimate was < -0.25.
In the case of HRVTPVIAPTDRTMEC, the growth estimate is reported as < -0.25.
For HRVVGEVGSFCL, the growth estimate was < -0.25.
HSAENSRHKVHSLGRRFTAD was tested, and the growth estimate was < -0.25.
HSANYAGRHRDPST was tested, and the growth estimate was < -0.25.
In the case of HSARPERRVCK, the growth estimate is reported as < -0.25.
With HSATVQVRSPRIGKTTIS the growth estimate was < -0.25.
With HSAYYLEIS the growth estimate was < -0.25.
HSDM gave a growth estimate of -0.246.
HSDSQVVGGLL was tested, and the growth estimate was < -0.25.
For HSEIVAEFRSLLCRGARECS, the growth estimate was < -0.25.
In the case of HSGFSVPEGAVRTSAISLLG, the growth estimate is reported as < -0.25.
In the case of HSGIEWKG, the growth estimate is reported as < -0.25.
With HSGVWTRERCGQPFSTPRTN the growth estimate was < -0.25.
For HSLA, the growth estimate was < -0.25.
In the case of HSLHAWGAGHVHMGFDTILR, the growth estimate is reported as < -0.25.
In the case of HSLTPAVPPRLPR, the growth estimate is reported as < -0.25.
HSMGCRRGRTAPKVGIDSTF was tested, and the growth estimate was < -0.25.
For HSPCYARFISNRTRL, the growth estimate was < -0.25.
With HSPPNLAVYAAHQERTCGQQ the growth estimate was < -0.25.
In the case of HSQASNVLHPRARLLTPH, the growth estimate is reported as < -0.25.
HSRGSGRFG was tested, and the growth estimate was < -0.25.
HSRI was tested, and the growth estimate was < -0.25.
With HSRLFLIGTLFGRT the growth estimate was < -0.25.
In the case of HSRNIISGVGTTLFVRRYYG, the growth estimate is reported as < -0.25.
For HSRRRERQLTGHGSCVPGRG, the growth estimate was < -0.25.
For HSRRVRER, the growth estimate was < -0.25.
HSRSAHYLDRMRRGVRPG was tested, and the growth estimate was < -0.25.
For HSSEHVDRRRGAKRPERASV, the growth estimate was < -0.25.
HSSRG was tested, and the growth estimate was < -0.25.
HSSRSRRGNSLCLFRSNTPR was tested, and the growth estimate was < -0.25.
With HSTARCTPPDPRQRVDMNVE the growth estimate was -0.245.
For HSTCCAEGK, the growth estimate was < -0.25.
With HSVNEPAQIITFQL the growth estimate was < -0.25.
In the case of HSWMHRDRIHRRGIPTGLIS, the growth estimate is reported as < -0.25.
With HSYA the growth estimate was < -0.25.
HSYDSTCGI was tested, and the growth estimate was < -0.25.
With HTAAAVRATTSTAQGQVF the growth estimate was < -0.25.
In the case of HTALHDQR, the growth estimate is reported as < -0.25.
For HTASVRIPVALLGRLSPRFE, the growth estimate was < -0.25.
For HTCKWGWYRVFRFVLSSPVD, the growth estimate was < -0.25.
With HTCQGDARRSWCKGKKRRSV the growth estimate was < -0.25.
